Test results: paper PMC10917549
No constants are given. Whether binding was seen depends on the method and setting. Some binding calls cover weakened binding; strength is not graded here.

Protein sequences, listed by entry. Tags and fused reporters are not part of them.
UniProt Q00987: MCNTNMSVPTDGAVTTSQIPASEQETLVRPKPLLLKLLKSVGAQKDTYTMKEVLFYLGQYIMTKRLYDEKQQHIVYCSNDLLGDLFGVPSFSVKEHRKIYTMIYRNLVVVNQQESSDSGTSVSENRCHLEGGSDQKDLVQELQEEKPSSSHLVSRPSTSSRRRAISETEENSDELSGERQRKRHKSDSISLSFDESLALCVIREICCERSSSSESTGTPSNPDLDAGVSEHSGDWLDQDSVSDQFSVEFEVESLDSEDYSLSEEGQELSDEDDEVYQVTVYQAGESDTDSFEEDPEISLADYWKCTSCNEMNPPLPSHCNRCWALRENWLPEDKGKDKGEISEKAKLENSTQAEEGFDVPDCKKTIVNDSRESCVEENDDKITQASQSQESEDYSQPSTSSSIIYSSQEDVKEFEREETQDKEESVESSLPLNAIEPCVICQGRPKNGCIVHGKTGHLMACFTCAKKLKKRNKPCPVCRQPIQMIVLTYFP

Target: MDM2 (UniProt Q00987)
Assay: two-hybrid; Y2H Gold yeast; MDM2 in pGBKT7 as bait, FBXO31 or F-box-mut in PGADT7 as prey; growth and blue colour of colonies on TDO (SD/-Leu/-Trp/-His) and QDO (SD/-Leu/-Trp/-His/-Ade) after three days

binding: binds
B1: F-box only protein 31 (FBXO31) (protein, UniProt Q5XUX0 1-539)
chain: MAVCARLCGVGPSRGCRRRQQRRGPAETAAADSEPDTDPEEERIEASAGVGGGLCAGPSPPPPRCSLLELPPELLVEIFASLPGTDLPSLAQVCTKFRRILHTDTIWRRRCREEYGVCENLRKLEITGVSCRDVYAKLLHRYRHILGLWQPDIGPYGGLLNVVVDGLFIIGWMYLPPHDPHVDDPMRFKPLFRIHLMERKAATVECMYGHKGPHHGHIQIVKKDEFSTKCNQTDHHRMSGGRQEEFRTWLREEWGRTLEDIFHEHMQELILMKFIYTSQYDNCLTYRRIYLPPSRPDDLIKPGLFKGTYGSHGLEIVMLSFHGRRARGTKITGDPNIPAGQQTVEIDLRHRIQLPDLENQRNFNELSRIVLEVRERVRQEQQEGGHEAGEGRGRQGPRESQPSPAQPRAEAPSKGPDGTPGEDGGEPGDAVAAAEQPAQCGQGQPFVLPVGVSSRNEDYPRTCRMCFYGTGLIAGHGFTSPERTPGVFILFDEDRFGFVWLELKSFSLYSRVQATFRNADAPSPQAFDEMLKNIQSLTS
